# Test results as given in the supplement of paper PMC8728848.
# The list shows a part of the results.
# B1: Clec18Av1 (Homo sapiens), A5D8T8 (protein)
# chain: MLHPETSPGRGHLLAVLLALLGTAWAEVWPPQLQEQAPMAGALNRKESFLLLSLHNRLRSWVQPPAADMRRLDWSDSLAQLAQARAALCGTPTPSLASGLWRTLQVGWNMQLLPAGLVSFVEVVSLWFAEGQRYSHAAGECARNATCTHYTQLVWATSSQLGCGRHLCSAGQAAIEAFVCAYSPRGNWEVNGKTIVPYKKGAWCSLCTASVSGCFKAWDHAGGLCEVPRNPCRMSCQNHGRLNISTCHCHCPPGYTGRYCQVRCSLQCVHGRFREEECSCVCDIGYGGAQCATKVHFPFHTCDLRIDGDCFMVSSEADTYYRARMKCQRKGGVLAQIKSQKVQDILAFYLGRLETTNEVIDSDFETRNFWIGLTYKTAKDSFRWATGEHQAFTSFAFGQPDNHGFGNCVELQASAAFNWNDQRCKTRNRYICQFAQEHISRWGPGS
# Columns and labels:
# Experiment in all cases: glycan array binding signal (z-score within array); higher = stronger binding
# Details in all cases: glycan notation: IUPAC condensed, linker removed
# Fuc(a1-3)GlcNAc = biological target: Fuc(a1-3)GlcNAc
# Summary of the method: (§1)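 Arrays were curated from the Consortium for Functional Glycomics database, 3228 in total, and kept only where the protein sequence was available. Binding is expressed as a within-array Z-score. This score was averaged across arrays of the same protein sequence at different concentrations or buffers and across linkers, and negative values can be read as non-binding.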
# [1] = biological target: Fuc(a1-3)[Gal(b1-4)]Glc6S
# Summary of the method: as §1
# [2] = biological target: Fuc(a1-3)[Gal(b1-4)]GlcNAc
# Summary of the method: as §1
# [3] = biological target: Fuc(a1-3)[Gal(b1-4)]GlcNAc(b1-2)Man
# Summary of the method: as §1
# [4] = biological target: Fuc(a1-3)[Gal(b1-4)]GlcNAc(b1-2)Man(a1-3)[Fuc(a1-3)[Gal(b1-4)]GlcNAc(b1-2)Man(a1-6)]Man(b1-4)GlcNAc(b1-4)GlcNAc
# Summary of the method: as §1
# [5] = biological target: Fuc(a1-3)[Gal(b1-4)]GlcNAc(b1-2)Man(a1-3)[Fuc(a1-3)[Gal(b1-4)]GlcNAc(b1-2)Man(a1-6)]Man(b1-4)GlcNAc(b1-4)[Fuc(a1-6)]GlcNAc
# Summary of the method: as §1
# [6] = biological target: Fuc(a1-3)[Gal(b1-4)]GlcNAc(b1-3)Gal(b1-3)[Fuc(a1-4)]GlcNAc
# Summary of the method: as §1
# [7] = biological target: Fuc(a1-3)[Gal(b1-4)]GlcNAc(b1-3)Gal(b1-4)[Fuc(a1-3)]GlcNAc
# Summary of the method: as §1
# [8] = biological target: Fuc(a1-3)[Gal(b1-4)]GlcNAc(b1-3)Gal(b1-4)[Fuc(a1-3)]GlcNAc(b1-3)Gal(b1-4)[Fuc(a1-3)]GlcNAc
# Summary of the method: as §1
# [9] = biological target: Fuc(a1-3)[Gal(b1-4)]GlcNAc(b1-3)GalNAc
# Summary of the method: as §1
# [10] = biological target: Fuc(a1-3)[Gal(b1-4)]GlcNAc(b1-6)GalNAc
# Summary of the method: as §1
# [11] = biological target: Fuc(a1-3)[Gal(b1-4)]GlcNAc(b1-6)[Gal(b1-3)GlcNAc(b1-3)]Gal(b1-4)Glc
# Summary of the method: as §1
# [12] = biological target: Fuc(a1-3)[Gal(b1-4)]GlcNAc6S
# Summary of the method: as §1
# [13] = biological target: Fuc(a1-3)[Gal3S(b1-4)]Glc
# Summary of the method: as §1
# [14] = biological target: Fuc(a1-3)[Gal3S(b1-4)]GlcNAc
# Summary of the method: as §1
# [15] = biological target: Fuc(a1-3)[Gal3S(b1-4)]GlcNAc6S
# Summary of the method: as §1
# [16] = biological target: Fuc(a1-3)[GalNAc(b1-4)]GlcNAc
# Summary of the method: as §1
# [17] = biological target: Fuc(a1-3)[GalNAc(b1-4)]GlcNAc6S
# Summary of the method: as §1
# Fuc(a1-4)GlcNAc = biological target: Fuc(a1-4)GlcNAc
# Summary of the method: as §1
# Fuc(b1-3)GlcNAc = biological target: Fuc(b1-3)GlcNAc
# Summary of the method: as §1
# Gal(a1-2)Gal = biological target: Gal(a1-2)Gal
# Summary of the method: as §1
# Gal(a1-3)Gal = biological target: Gal(a1-3)Gal
# Summary of the method: as §1
# Gal(a1-3)Gal(b1-3)GlcNAc = biological target: Gal(a1-3)Gal(b1-3)GlcNAc
# Summary of the method: as §1
# [18] = biological target: Gal(a1-3)Gal(b1-3)GlcNAc(b1-2)Man
# Summary of the method: as §1
# [19] = biological target: Gal(a1-3)Gal(b1-3)GlcNAc(b1-2)Man(a1-3)[Gal(a1-3)Gal(b1-3)GlcNAc(b1-2)Man(a1-6)]Man(b1-4)GlcNAc(b1-4)GlcNAc
# Summary of the method: as §1
# [20] = biological target: Gal(a1-3)Gal(b1-3)GlcNAc(b1-3)GalNAc
# Summary of the method: as §1
# [21] = biological target: Gal(a1-3)Gal(b1-3)GlcNAc(b1-6)GalNAc
# Summary of the method: as §1
# [22] = biological target: Gal(a1-3)Gal(b1-3)[Fuc(a1-4)]GlcNAc(b1-2)Man(a1-3)[Gal(a1-3)Gal(b1-3)[Fuc(a1-4)]GlcNAc(b1-2)Man(a1-6)]Man(b1-4)GlcNAc(b1-4)GlcNAc
# Summary of the method: as §1
# Gal(a1-3)Gal(b1-4)Glc = biological target: Gal(a1-3)Gal(b1-4)Glc
# Summary of the method: as §1
# Gal(a1-3)Gal(b1-4)GlcNAc = biological target: Gal(a1-3)Gal(b1-4)GlcNAc
# Summary of the method: as §1
binder,measurement,setting,value
B1,glycan array binding signal (z-score),Fuc(a1-3)GlcNAc,-0.876
same,glycan array binding signal (z-score),[1],0.022
same,glycan array binding signal (z-score),[2],-0.368
same,glycan array binding signal (z-score),[3],-0.833
same,glycan array binding signal (z-score),[4],0.864
same,glycan array binding signal (z-score),[5],1.88
same,glycan array binding signal (z-score),[6],0.526
same,glycan array binding signal (z-score),[7],0.079
same,glycan array binding signal (z-score),[8],-0.748
same,glycan array binding signal (z-score),[9],1.02
same,glycan array binding signal (z-score),[10],-0.354
same,glycan array binding signal (z-score),[11],1.82
same,glycan array binding signal (z-score),[12],1.02
same,glycan array binding signal (z-score),[13],-0.1
same,glycan array binding signal (z-score),[14],-0.843
same,glycan array binding signal (z-score),[15],-0.637
same,glycan array binding signal (z-score),[16],1.11
same,glycan array binding signal (z-score),[17],1.55
same,glycan array binding signal (z-score),Fuc(a1-4)GlcNAc,-0.636
same,glycan array binding signal (z-score),Fuc(b1-3)GlcNAc,-0.849
same,glycan array binding signal (z-score),Gal(a1-2)Gal,-0.398
same,glycan array binding signal (z-score),Gal(a1-3)Gal,-0.255
same,glycan array binding signal (z-score),Gal(a1-3)Gal(b1-3)GlcNAc,0.376
same,glycan array binding signal (z-score),[18],3.22
same,glycan array binding signal (z-score),[19],0.008
same,glycan array binding signal (z-score),[20],2.38
same,glycan array binding signal (z-score),[21],0.002
same,glycan array binding signal (z-score),[22],0.72
same,glycan array binding signal (z-score),Gal(a1-3)Gal(b1-4)Glc,0.174
same,glycan array binding signal (z-score),Gal(a1-3)Gal(b1-4)GlcNAc,0.888
